## Screening data, single-dose tests

Source: ChEMBL document CHEMBL3988442, “University of Dundee, Small-Polar-MMV Screening Library” (2021).

The filed quantity is “Percent Effect” (%).
The record does not define 0% and 100%; most values in the screen are far below 50% and negative numbers occur (in some assays of this library far below -100).
Compounds were drawn at random from those tested, without regard to their results.
Two or more numbers in one place are separate tests of the same structure; such repeats can differ widely.

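Whole-cell growth test on Mycobacterium tuberculosis, read after 3 days in glucose-containing 7H9 medium; the read-out is not stated. Tested at 50 µM. Direction is inferred from retests: higher values go with more growth inhibition. About 69,000 compounds were tested under these conditions; 1.1% (about 760) showed 50% or more at least once.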

compound,percent effect
CCOc1ccccc1CSc1nnc(CC2CCS(=O)(=O)C2)n1C (stereo not drawn),-6.617%
CC(C)CC(=O)N(C)Cc1nc(C(F)(F)F)cs1,-9.415%
Cc1nc(Nc2ncccn2)cc(C2CCCN2C)n1 (stereo not drawn),-4.558%
O=C(c1ccno1)N1CCCC(c2ncncc2-c2ccncc2)C1 (stereo not drawn),-7.75%
Cc1nn(C)c(N(C)C)c1CNCc1ccccc1Cn1ccnc1,22.53%
Nc1cc2c(nn1)CCN(C(=O)C1CCc3ccccc31)C2 (stereo not drawn),-36.59% & -4.304%
COc1ccccc1CNC(=O)Cn1ncc2c1c(C)nn2C,-8.429%
Cc1ccc(CN2CCCC3(CCN(S(C)(=O)=O)C3)C2)o1.O=C(O)C(F)(F)F (stereo not drawn),32.35%
O=C(O)C(F)(F)F.O=C(O)C(F)(F)F.[H][C@@]12C[C@@H](OCc3ccccc3)CN1CCN(Cc1nccn1C)C2,-1.478% & 6.702%
O=C(O)C(F)(F)F.[H][C@@]12CNC(=O)[C@@H](C)[C@]1([H])CN(CCc1ccccc1)C2,-0.272%
O=C(O)c1ccccc1-n1cnc(CN2CCc3ccccc3C2)c1,-7.109%
CCC(CC)CN1CCC(n2cc(C3CCCC3)nn2)CC1,38.19%
CCC(CO)N(Cc1ccco1)C(=O)c1ccccc1SC (stereo not drawn),-7.565%
CNS(=O)(=O)c1ccccc1N1CCN(C(=O)NC(C)C)CC1,-3.864% & 36.49%
Cn1nnc2c1CCN(C(=O)CC1CC1)C2COCCN1CCCC1 (stereo not drawn),-6.869% & -17.64%
COCCc1noc(CN2CCc3nn(C(C)C)c(=O)cc3C2)n1,-29.8%
Nc1cc(-c2c[nH]nc2C2CCCN2CCCc2ccccc2)ccn1 (stereo not drawn),4.64%
[H][C@]12CC[C@]([H])(CN(S(C)(=O)=O)C1)N(CCC(=O)NCc1ccco1)C2,-30.47%
CC(C)OCCC(=O)NCC(O)c1c(F)cccc1F (stereo not drawn),12.4%
O=C(NCCCN1CCOCC1)c1cc(-c2ccccc2)[nH]n1,-17.75%
Cc1ccc(S(C)(=O)=O)cc1C(=O)N1CCCC(n2cncn2)C1 (stereo not drawn),38.72%
CNc1ccnc(N2CC[C@@](O)(C3CCOCC3)[C@H](C)C2)n1,22.95%
NC(=O)CN(CC(N)=O)Cc1cccc(Oc2ccccc2)c1,-4.192% & -6.959%
O=C(N1CCOCC1)N1CCc2ncc(CN3CCCCC3)n2CC1.O=C(O)C(F)(F)F,-4.586%
O[C@H]1CN(CCOc2ccc(F)cc2)CC[C@@]12CCCO2,20.58%
CN(Cc1cccs1)C(=O)CNC1CCc2ncnn2C1 (stereo not drawn),13.25% & -0.4104%
O=C1CSC(C(F)(F)F)c2c(O)nn(C3CCCC3)c2N1 (stereo not drawn),25.55%
Cc1cnn(C(C)C2CC2)c1NC(=O)c1ccco1 (stereo not drawn),18.55%
CCCC(C)N(C)Cc1nnc(-c2ccc(Br)s2)o1 (stereo not drawn),48.23%
CN(C)CCN(Cc1ccco1)C(=O)Cc1cn2ccsc2n1,-6.24%
CCC(NC(=O)c1cccc2[nH]ccc12)C(=O)N1CCOCC1 (stereo not drawn),-43.48% & 6.045%
CNC(=O)c1nnc2ccc(N3CCOCC3)cc2n1,-10.53%
O=C(O)C(F)(F)F.O=C(c1nc2c(o1)CN(CC1CCC1)C2)N1CCCC1,7.213% & -18.89%
O=C(Nc1nnn[nH]1)c1ccc(I)c(F)c1,-40.53%
Cc1cc(CNC2CCCN(c3cccnn3)C2)no1 (stereo not drawn),-61.09%
Cc1cccc(CN2CCc3nnc(Cn4cccc4)n3CC2)n1.O=C(O)C(F)(F)F,-11.87%
O=C(O)C(F)(F)F.O=C(c1ccoc1)N1CCCC2(CCC(=O)N2Cc2ccncc2)C1 (stereo not drawn),-0.4161% & -14.49%
O=C(O)C(F)(F)F.O=C(O)C(F)(F)F.O=C(O)C(F)(F)F.c1cncc(COCc2cncc3c2CCN(Cc2ccoc2)C3)c1,4.35%
Cn1c(CO)nnc1CC1CCN(Cc2ccc(C#N)cc2)CC1,12.26%
CN1CCC(CNC(=O)c2ccc3cccc(Cl)c3n2)C1 (stereo not drawn),39.69%
Cn1cnnc1C1CCCN1C(=O)Nc1cccc(OC(F)F)c1 (stereo not drawn),-3.159% & -23.04%
CCC(O)CN1CCN(C(=O)c2sccc2OC)CC1 (stereo not drawn),30.74%
CSCC(C)(O)CNC(=O)c1cc(Cl)ccc1Cl (stereo not drawn),12.91%
Cc1cccc(-n2nnnc2C(C)(C)Nc2ccccc2C)c1,31.15%
CCc1nccn1C1CCCN(C(=O)c2ccc(C(=O)NC)nc2)C1 (stereo not drawn),9.689%